Test results reported in paper PMC3979729.
These are yes or no findings as the source states them, for the method shown. In cells and extracts the contact can be indirect. Some results given as binding are weak or reduced against the parent protein; the word gives no strength.

The chains behind the UniProt entries cited, without tags or fusion partners.
UniProt Q13546: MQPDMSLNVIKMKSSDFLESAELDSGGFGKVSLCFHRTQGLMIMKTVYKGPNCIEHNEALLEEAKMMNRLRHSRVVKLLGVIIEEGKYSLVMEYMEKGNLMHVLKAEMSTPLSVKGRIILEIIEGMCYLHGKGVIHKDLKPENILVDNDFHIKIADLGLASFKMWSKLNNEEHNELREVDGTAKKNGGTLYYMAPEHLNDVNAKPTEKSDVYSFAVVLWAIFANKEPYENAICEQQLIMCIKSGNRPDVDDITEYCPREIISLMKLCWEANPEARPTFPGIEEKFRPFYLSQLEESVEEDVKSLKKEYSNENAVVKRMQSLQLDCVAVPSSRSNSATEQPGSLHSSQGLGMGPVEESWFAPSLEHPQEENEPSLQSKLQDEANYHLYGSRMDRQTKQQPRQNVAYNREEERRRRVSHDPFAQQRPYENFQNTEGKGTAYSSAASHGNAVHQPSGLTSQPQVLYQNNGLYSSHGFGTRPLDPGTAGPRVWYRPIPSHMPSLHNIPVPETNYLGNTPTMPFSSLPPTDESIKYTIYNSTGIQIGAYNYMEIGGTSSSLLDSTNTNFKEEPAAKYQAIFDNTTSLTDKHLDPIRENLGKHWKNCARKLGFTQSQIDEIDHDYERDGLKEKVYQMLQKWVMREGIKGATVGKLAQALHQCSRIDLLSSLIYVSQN
UniProt Q9Y572: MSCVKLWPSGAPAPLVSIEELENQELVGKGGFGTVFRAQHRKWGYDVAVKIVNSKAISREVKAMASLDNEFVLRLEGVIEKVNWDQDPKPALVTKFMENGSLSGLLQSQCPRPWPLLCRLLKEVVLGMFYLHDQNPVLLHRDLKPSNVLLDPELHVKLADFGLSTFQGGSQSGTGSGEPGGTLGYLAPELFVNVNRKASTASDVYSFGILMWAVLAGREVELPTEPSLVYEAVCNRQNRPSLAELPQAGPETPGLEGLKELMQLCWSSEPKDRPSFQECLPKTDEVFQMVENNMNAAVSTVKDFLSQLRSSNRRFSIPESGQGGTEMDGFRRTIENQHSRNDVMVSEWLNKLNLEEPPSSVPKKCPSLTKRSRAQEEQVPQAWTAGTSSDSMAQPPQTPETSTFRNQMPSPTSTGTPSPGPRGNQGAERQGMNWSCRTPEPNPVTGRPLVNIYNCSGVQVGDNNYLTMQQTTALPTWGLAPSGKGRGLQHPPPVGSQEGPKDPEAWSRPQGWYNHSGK

Target: RIPK1-HA (UniProt Q13546)
Assay: co-IP

Substance: RIPK3-FLAG (from UniProt Q9Y572 1-518)
- binding: binds
